Protein sequences, listed by entry. Tags and fused reporters are not part of them.
UniProt Q99717: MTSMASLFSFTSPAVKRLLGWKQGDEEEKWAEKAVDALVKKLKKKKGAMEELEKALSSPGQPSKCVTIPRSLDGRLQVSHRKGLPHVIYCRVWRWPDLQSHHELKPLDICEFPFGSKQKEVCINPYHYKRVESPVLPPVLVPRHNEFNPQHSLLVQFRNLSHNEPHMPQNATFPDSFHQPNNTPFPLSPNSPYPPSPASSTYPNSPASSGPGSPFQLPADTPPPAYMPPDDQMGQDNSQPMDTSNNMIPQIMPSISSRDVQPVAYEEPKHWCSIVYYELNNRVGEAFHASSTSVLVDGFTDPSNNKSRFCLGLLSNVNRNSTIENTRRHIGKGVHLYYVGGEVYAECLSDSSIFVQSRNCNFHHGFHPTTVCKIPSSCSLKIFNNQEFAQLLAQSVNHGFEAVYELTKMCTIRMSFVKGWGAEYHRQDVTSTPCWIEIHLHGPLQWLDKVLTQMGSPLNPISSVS

In paper PMC5587853:

Target: GFP-Smad5 (UniProt Q99717)
Experiment: affinity purification with mass spectrometry; Co-IP of GFP-Smad5 followed by mass spectrometry (IP/MS)

binding: binds
B1: hexokinase 1 (HK1) found by IP/MS with GFP-Smad5 (enzyme, UniProt P19367 1-917)
chain: MIAAQLLAYYFTELKDDQVKKIDKYLYAMRLSDETLIDIMTRFRKEMKNGLSRDFNPTATVKMLPTFVRSIPDGSEKGDFIALDLGGSSFRILRVQVNHEKNQNVHMESEVYDTPENIVHGSGSQLFDHVAECLGDFMEKRKIKDKKLPVGFTFSFPCQQSKIDEAILITWTKRFKASGVEGADVVKLLNKAIKKRGDYDANIVAVVNDTVGTMMTCGYDDQHCEVGLIIGTGTNACYMEELRHIDLVEGDEGRMCINTEWGAFGDDGSLEDIRTEFDREIDRGSLNPGKQLFEKMVSGMYLGELVRLILVKMAKEGLLFEGRITPELLTRGKFNTSDVSAIEKNKEGLHNAKEILTRLGVEPSDDDCVSVQHVCTIVSFRSANLVAATLGAILNRLRDNKGTPRLRTTVGVDGSLYKTHPQYSRRFHKTLRRLVPDSDVRFLLSESGSGKGAAMVTAVAYRLAEQHRQIEETLAHFHLTKDMLLEVKKRMRAEMELGLRKQTHNNAVVKMLPSFVRRTPDGTENGDFLALDLGGTNFRVLLVKIRSGKKRTVEMHNKIYAIPIEIMQGTGEELFDHIVSCISDFLDYMGIKGPRMPLGFTFSFPCQQTSLDAGILITWTKGFKATDCVGHDVVTLLRDAIKRREEFDLDVVAVVNDTVGTMMTCAYEEPTCEVGLIVGTGSNACYMEEMKNVEMVEGDQGQMCINMEWGAFGDNGCLDDIRTHYDRLVDEYSLNAGKQRYEKMISGMYLGEIVRNILIDFTKKGFLFRGQISETLKTRGIFETKFLSQIESDRLALLQVRAILQQLGLNSTCDDSILVKTVCGVVSRRAAQLCGAGMAAVVDKIRENRGLDRLNVTVGVDGTLYKLHPHFSRIMHQTVKELSPKCNVSFLLSEDGSGKGAALITAVGVRLRTEASS

These are yes or no findings as the source states them, for the method shown. In cells and extracts the contact can be indirect. A yes stands for co-enrichment or nearness to the bait. Other partners may have been found. Tags and fused reporters may be left off the sequences shown.
